Hit rate of the full screen: of about 340,000 compounds, about 170 (0.05%) were called active. Inconclusive results, whose numbers are uncertain, are shown with a selection of clear calls. Calls come from the whole dose curve; as a rule, active = well fitted inhibition curve with a large enough effect in the signal ratio, with a control signal flat (not every such curve was filed as active); inconclusive = small, poorly fitted or top-dose-only effect, or effect the other way, or a change in a side signal; inactive = flat fitted curve, though single readings scatter; the % refers to the signal ratio. Where the call is inconclusive, the potency comes from a doubtful curve fit.
Assay: qHTS Assay to Find Inhibitors of Chronic Active B-Cell Receptor Signaling;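 for activity change, negative = inhibition: plate controls were basal doxycycline-induced cells for no effect and cells given 10 µM MG132 for full effect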
Conditions: ABC-DLBCL IkBa-CBG/CBR reporter, luminescence ratio (green luciferase fused to IkBa over red control in TMD8 lymphoma cells), 4 h; activity change, negative = inhibition: at 46.1 µM (top of the series)
Summary of the method: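 Doxycycline induced both beetle luciferases in TMD8 lymphoma cells; IKK-driven degradation limits the IkappaBalpha-fused green signal, while red luminescence normalises for cell number and nonspecific effects. Compounds tested up to 46 uM, 4 hrs.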
Potency is the fitted concentration of half-maximal effect.

SMILES	Potency	activity change, negative = inhibition
C(=N\n1cnnc1)/c1ccc(OCc2cccc3ccccc23)cc1	inconclusive: 29.1 µM [falling, single point]	
CN1Cc2cc(C(=O)c3ccccc3O)cnc2NC1=O		inconclusive: -16.7%
CCOC(=O)c1c(NC(=O)/C=C/C(=O)O)sc(C)c1-c1ccc(C)c(C)c1		inconclusive: 12.8%
CCN1CCN(CCCNC(=O)c2csc3c2CCCCC3)CC1		inactive
CCOc1cc(CN2CCN(c3ccc(C(C)=O)cc3)CC2)ccc1OC		inactive
CCN(c1cccc2ccccc12)S(=O)(=O)c1ccc(Cl)nc1		inactive
CCc1ccc(-c2nc(-c3cc4ccccc4oc3=O)sc2C)cc1		inactive
Cc1cc(/C=C(\C#N)C(=O)NCc2ccco2)c(C)n1C1CCCC1		inconclusive: 14.4%
CCOC(=O)C(C)On1c(-n2nc(C)cc2C)nc2ccccc2c1=O (stereo not drawn)	inconclusive: 14.1 µM [falling, partial curve, poor fit]	
Clc1cccc(-c2nc(NCc3cccnc3)c3ccccc3n2)c1		inconclusive: 6.58%
C/C=C/Cn1c(SCCCc2ccccc2)nc2c1c(=O)[nH]c(=O)n2C		inconclusive: 12%
C[C@H](CO)N1C[C@H](C)[C@@H](CN(C)Cc2ccc(Cl)c(Cl)c2)Oc2c(NC(=O)C3CC3)cccc2C1=O		inconclusive: -6.02%
NS(=O)(=O)c1cccc(NC(=O)CCSc2ccccc2Cl)c1	inconclusive: 18.4 µM [falling, partial curve]	
Cc1ccc(C(=O)N(C)CC(=O)Nc2ccc(N3CCOCC3)cc2)s1		inconclusive: -0.293%
O=C(Cn1c(NCCO)nc2ccccc21)N1CCN(Cc2ccccc2)CC1		inconclusive: 3.59%
Cc1ccc(NC2=Nc3ccccc3CS2)cc1		inconclusive: 0.33%
CN(C)c1ccc(C2Nc3ccccc3C(=O)N2NS(C)(=O)=O)cc1 (stereo not drawn)		inactive
CC(C)Cn1c(N)c(C(=O)COC(=O)c2c(O)c(Cl)cc(Cl)c2Cl)c(=O)n(C)c1=O		inactive
Cc1ccc2nc(N3C(=O)C(O)=C(C(=O)c4ccc(C)o4)C3c3ccco3)sc2c1 (stereo not drawn)		inactive
Cc1cc(=O)[nH]c(N/N=C/c2ccccc2C(F)(F)F)n1		inactive
Cc1ccc(S(=O)(=O)CCC(=O)Nc2nnc(CC(C)C)s2)cc1	inconclusive: 13 µM [falling, partial curve, poor fit]	

SMILES	Potency	activity change, negative = inhibition
CCOC(=O)C(NCCOC)(NC(C)=O)C(F)(F)F (stereo not drawn)		inconclusive: 1.98%
Cc1c(Cl)c(-c2n[nH]c(=S)n2-c2ccc(F)cc2)nn1C		inconclusive: 4.15%
CCNc1nc(NCC)nc(N/N=C/c2ccc(Br)cc2)n1		inconclusive: 2.39%
NC(=O)N/N=C/C=C/c1ccccc1		inactive
C=C(C)c1cccc(C(C)(C)NC(=O)N2CC(C)OC(C)C2)c1 (stereo not drawn)	inconclusive: 1.84 µM [falling, single point]	
O=C(CCNc1ccc(Cc2ccncc2)cc1)c1cccc([N+](=O)[O-])c1		inconclusive: -17.2%
O=C(CCNC(=O)c1ccco1)Nc1ccc(F)c(Cl)c1		inconclusive: 9.7%
O=C(Nc1ccc(SC(F)F)cc1)C12CCC(CC1)C2		inconclusive: -4.28%
COc1ccc(C(CCN2CCCCC2)c2c(O)cc(OC)cc2OC)cc1 (stereo not drawn)		inconclusive: -3.02%
Cc1ccc(C(=O)OCC(=O)N(C)C2CCS(=O)(=O)C2)cc1S(=O)(=O)N1CCCCC1 (stereo not drawn)	inconclusive: 16.4 µM [falling, partial curve, poor fit]	
N#Cc1ccc(C(=O)Nc2nnc(-c3cccs3)o2)cc1	inconclusive: 4.47 µM [rising, full curve]	
Cc1nc(-c2cccnc2)sc1C(=O)Nc1cccc(C(F)(F)F)c1	inconclusive: 35.5 µM [falling, single point]	
Cc1cc(C)c2c(N)c(C(=O)Nc3ncc(C)s3)sc2n1	inconclusive: 29.1 µM [falling, single point]	
COc1ccc([N+](=O)[O-])cc1CSc1nnc(NC(C)=O)s1		inconclusive: 3.79%
CCOC(=O)CN1C(=O)S/C(=C/c2ccc(C)o2)C1=O		inconclusive: 8.22%
O=C(CN1c2ccccc2Sc2ccccc21)NNC(=O)Nc1ccc(Cl)c(Cl)c1		inconclusive: -0.0775%
Cn1c(=O)c2c(nc(Br)n2C)n(C)c1=O		inconclusive: 1.49%
CCOc1ccc(N2CC(NC(=O)Cc3ccccc3)CC2=O)cc1 (stereo not drawn)		inactive
CNC(=S)Nc1ccc(C(N)=O)cc1		inactive
Cc1ccc(CN2CCN(/N=C/c3ccc(C(=O)O)cc3)CC2)cc1		inactive
COc1ccc(S(=O)(=O)Nc2c(NC3CCCCC3)c3ccccc3oc2=O)cc1Cl		inconclusive: -17.4%

SMILES	Potency	activity change, negative = inhibition
C=CCn1c(=O)n(CCOC)c(=O)c2sc3ccccc3c21		inconclusive: -1.39%
CC(C)c1ccccc1-n1c(SCC(=O)c2ccc3c(c2)NC(=O)CO3)nc2ccccc2c1=O		inactive
CC1(C)Oc2cc(N)c([N+](=O)[O-])cc2O1		inactive
COc1ccc(NC(=O)CCC(=O)Nc2nnc(C(F)(F)F)s2)c(OC)c1		inconclusive: 5.35%
COc1ccc(CC(=O)NNC2=Nc3cccc4cccc2c34)cc1		inactive
CCOC(=O)C(C(C)=O)c1c(Br)c(O)c(O)c2c(C(=O)c3ccc(C)cc3)coc12 (stereo not drawn)	inconclusive: 35.5 µM [falling, single point]	
CCOC(=O)c1cc(C)sc1NC(=O)c1ccc(Cl)s1		inconclusive: 4.63%
Cc1ccnc(NS(=O)(=O)c2ccc(NC(=O)c3c(-c4ccccc4Cl)noc3C)cc2)n1		inconclusive: -23.5%
Cn1c(=O)c2c(nc(NCCNC(=O)c3ccco3)n2Cc2ccccc2)n(C)c1=O		inactive
O=C(Nc1ccccc1-c1ccccc1)c1ccccc1[N+](=O)[O-]		inconclusive: 0.747%
O=C(NC1CCCC1)C(c1ccncc1)N(CCCN1CCOCC1)C(=O)c1ccc(-c2ccccc2)[nH]1 (stereo not drawn)	inconclusive: 3.98 µM [rising, partial curve]	
O=C(COc1ccc(Br)cc1F)NC1CC1		inconclusive: 3.24%
C=CCN(c1ccccc1)S(=O)(=O)c1cccc(C(=O)Nc2nnc(SCC)s2)c1		inconclusive: 0.376%
O=C(Nc1nnc(-c2cccnc2)o1)c1cccc(Cl)c1	inconclusive: 10 µM [falling, partial curve]	
CCN1C(=O)CC(NNC(=O)c2ccccc2)C1=O (stereo not drawn)	inconclusive: 28.2 µM [falling, single point]	
CC(C)CNC(=O)c1cc(=O)[nH]c2ccc(S(=O)(=O)Nc3ccc(F)cc3)cc12		inactive
CCN(CC(=O)Nc1ccc2c(c1)OCCO2)C(=O)C1CC(=O)N(c2ccc(OC)cc2OC)C1 (stereo not drawn)		inconclusive: 1.13%
Cc1nn(Cc2ccccc2)c2c1C(c1cccnc1)C(C#N)=C(N)O2 (stereo not drawn)	inconclusive: 29.1 µM [falling, single point]	
O=C(NC(=S)N1CCN(c2ccccc2)CC1)c1c(F)cccc1F	inconclusive: 35.5 µM [falling, partial curve, poor fit]	
N#Cc1ccccc1Sc1ccccc1C(=O)OCC(=O)N1CCN(C(=O)c2ccco2)CC1		inconclusive: -1.34%
Cc1cc2nn(-c3cccc4ccccc34)nc2cc1NC(=O)c1cccs1		inconclusive: -103%

SMILES	Potency	activity change, negative = inhibition
CCCSc1ccc([C@@H]2[C@H]3C(=O)N(CC)C(=O)[C@H]3[C@]3(C(=O)OC)CCCN23)cc1		inconclusive: -4.46%
O=C(O)C(F)(F)S(=O)(=O)O		inconclusive: 8.57%
C/C(=N\NC(=S)NC(C)C)c1ccc(-n2ccnc2)cc1		inactive
N#C/C(=C\c1ccc(-c2ccc([N+](=O)[O-])cc2)o1)C(=O)Nc1nc(-c2cccs2)cs1		inconclusive: 9.36%
Cc1ccc(SCCNC(=O)c2ccc(C)c([N+](=O)[O-])c2)cc1		inconclusive: 12.4%
O=C(COC(=O)CCc1nc2ccccc2s1)Nc1ccc(S(=O)(=O)N2CCOCC2)cc1		inactive
CC(=O)CSc1ccc(-c2nc3ccccc3[nH]2)cn1		inactive
O=C(Nc1ccc2c(c1)OCO2)c1ccc(S(=O)(=O)N2CCCC2)cc1		inconclusive: 17.3%
CN(C(=O)CN1C(=O)S/C(=C\c2ccc(F)cc2)C1=O)C1CCS(=O)(=O)C1 (stereo not drawn)	inconclusive: 22.4 µM [falling, single point]	
Cc1ccc2c(c1)OC(=O)CC2c1ccccc1 (stereo not drawn)		inconclusive: 3.56%
CCOc1ccc(Br)cc1CSC(=N)N	inconclusive: 18.4 µM [falling, single point]	
COc1cc(CNCCN2CCOCC2)ccc1OCc1c(Cl)cccc1Cl		inconclusive: -12%
COc1ccc(-c2csc3ncn(Cc4ccccc4)c(=O)c23)cc1	inconclusive: 11.2 µM [falling, single point]	
CCCCCc1nc(-c2nonc2N)no1		inactive
CCOC(=O)c1cc(-c2ccccc2)n(-c2cccc(C(=O)N(CC)c3ccccc3)c2)c1C		inactive
CC(C)(C)C(=O)Nc1ccc(C(=O)N/N=C/c2ccccc2OC(=O)c2ccc(Cl)cc2)cc1		inactive
COc1cccc(C(=O)NNC(=O)C(=O)Nc2ccc(OC)cc2OC)c1		inactive
Cc1c(Nc2cc(Cl)c3nonc3c2[N+](=O)[O-])c(=O)n(-c2ccccc2)n1C	inconclusive: 4.47 µM [rising, full curve, poor fit]	
Cc1ccc(/C=N\NC(=O)c2csnn2)cc1	inconclusive: 22.4 µM [falling, partial curve]	
CC(=O)Nc1c(C(=O)Nc2ccc3c(c2)OCO3)oc2ccccc12		inconclusive: -3.66%

Reformatted with bars between the fields: 3 of the compounds above.
SMILES | Potency | activity change, negative = inhibition
Cc1cc(/C=C(\C#N)C(=O)NCc2ccco2)c(C)n1C1CCCC1 |  | inconclusive: 14.4%
CCNc1nc(NCC)nc(N/N=C/c2ccc(Br)cc2)n1 |  | inconclusive: 2.39%
COc1ccc(NC(=O)CCC(=O)Nc2nnc(C(F)(F)F)s2)c(OC)c1 |  | inconclusive: 5.35%

Reference: PubChem BioAssay AID493014 (National Center for Advancing Translational Sciences (NCATS), 2011)
